Values quoted from earlier work, collected in patent US20050152847A1, “Novel formulation” (priority 2002, published 2005).
At least one compound was matched to its structure with a doubt left.

Details: cited from earlier work

OC[C@@H](O)[C@@H](O[C@H]1O[C@H](CO)[C@@H](O)[C@H](O)[C@H]1O)[C@H](O)[C@@H](O)CO [Maltitol]
Browning reaction with amino acids: does not undergo browning reaction
